# Measurements reported in the supplement of paper PMC4749390.
# Structures can show the parent of a compound that is named as a salt. The list shows a part of the results. Single values are uncertain here, since repeats match poorly.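 JEG3 cells stably express tetracycline-inducible wild-type human LRH-1, a highly sumoylated nuclear receptor. SUMO-sensitive transcripts APOC3 and MUC1, increased by SUMO-deficient LRH-1 or UBC9 knockdown, were quantified by RT-qPCR relative to TBP and DMSO controls. Primary hits had robust Z-scores above +2 or below -2, before toxicity and TBP filtering.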
# Tested on: JEG3 expressing hLRH-1
# Experiment: APOC3 transcript change (ddCt vs TBP and DMSO), Z-score over library; higher = higher APOC3 expression
# Conditions: 10 µM; time (hr): 24
row,Structure (SMILES),APOC3 transcript change (Z-score)
1,Cc1onc(-c2ccccc2)c1C(=O)N[C@@H]1C(=O)N2[C@@H]1SC(C)(C)[C@@H]2C(=O)O [oxacillin sodium],0.104
2,CCCC(CCC)C(=O)O [Valproic acid sodium],-0.479
3,CCn1cc(C(=O)O)c(=O)c2cc(F)c(N3CCN(C)CC3)cc21 [pefloxacine mesylate],0.542
4,CCN(CCCc1ccccc1)CCCc1ccccc1 [alverine citrate],0.665
5,CCCc1nc2c(C)cc(-c3nc4ccccc4n3C)cc2n1Cc1ccc(-c2ccccc2C(=O)O)cc1 [telmisartan],0.322
6,Clc1ccc(C(c2ccccc2Cl)C(Cl)Cl)cc1 (centres undefined) [mitotane],0.348
7,CCCN(CCC)CCc1cccc2c1CC(=O)N2 [ropinirole hydrochloride],-0.101
8,CCCNCC(O)COc1ccccc1C(=O)CCc1ccccc1 (centres undefined) [propafenone hydrochloride],0.439
9,O=C(O)c1ccccc1-c1c2cc(I)c(=O)c(I)c-2oc2c(I)c(O)c(I)cc12 [erythrosine sodium],-1.05
10,CC(O)CC(C)(C)O (centres undefined) [hexylene glycol],-0.353
11,Cc1c(NC(=O)c2cccnc2)c(=O)n(-c2ccccc2)n1C [nifenazone],0.733
12,CCOC(=O)c1ccc(O)cc1 [ethyl paraben],-0.26
13,C#CCN[C@@H]1CCc2ccccc21 [rasagiline],0.238
14,CC1=C(CC(=O)O)c2cc(F)ccc2/C1=C\c1ccc(S(C)=O)cc1 (centres undefined) [Sulindac],-0.522
15,Cc1c(N(C)C)c(=O)n(-c2ccccc2)n1C [aminopyrine],0.0105
16,Clc1ccc(Cn2c(CN3CCCC3)nc3ccccc32)cc1 [clemizole hydrochloride],-0.271
17,CCN(CC)CCNC(=O)c1ccc(NC(C)=O)cc1 [N-Acetylprocainamide hydrochloride],-0.0623
18,S=C=Nc1ccc(N=C=S)cc1 [bitoscanate],0.0434
19,CC(C)(C)NCC(O)c1ccc(O)c(CO)c1 (centres undefined) [Albuterol hemisulfate],0.214
20,C#C[C@]1(O)CCC2C3CCC4=CC(=O)CC[C@@H]4C3CC[C@@]21CC (some centres undefined) [norgestrel],1.05
21,O=C(O)CCCCC1SCC2NC(=O)NC21 (centres undefined) [biotin],-0.303
22,CCN(CC)CCOC(=O)C(c1ccccc1)c1ccccc1 [adiphenine hydrochloride],-0.368
23,O=C(c1ccc(F)cc1)C1CCN(CCn2c(=O)[nH]c3ccccc3c2=O)CC1 [Ketanserin tartrate],0.575
24,Cc1nc(Nc2ncc(C(=O)Nc3c(C)cccc3Cl)s2)cc(N2CCN(CCO)CC2)n1 [dasatinib],2.93
25,CCCCCCc1ccc(O)cc1O.Nc1c2ccccc2nc2ccccc12 [acrisorcin],9.63
26,COc1ccc(-c2ccc3cc(C(=O)O)ccc3c2)cc1C12CC3CC(CC(C3)C1)C2 [adapalene],1.06
27,O=S(=O)(O)CCSSCCS(=O)(=O)O [dimesna],0.215

# 4 structures from above, ordered by molecular weight, rising.
row,Structure (SMILES),APOC3 transcript change (Z-score)
2,CCCC(CCC)C(=O)O [Valproic acid sodium],-0.479
7,CCCN(CCC)CCc1cccc2c1CC(=O)N2 [ropinirole hydrochloride],-0.101
4,CCN(CCCc1ccccc1)CCCc1ccccc1 [alverine citrate],0.665
20,C#C[C@]1(O)CCC2C3CCC4=CC(=O)CC[C@@H]4C3CC[C@@]21CC (some centres undefined) [norgestrel],1.05

# The list continues.

row,Structure (SMILES),APOC3 transcript change (Z-score)
1,N[C@H](Cc1cc(I)c(Oc2ccc(O)c(I)c2)c(I)c1)C(=O)O [liothyronine],-0.583
2,Cc1cc(NS(=O)(=O)c2ccc(N)cc2)no1 [sulfamethoxazole],-0.708
3,O=C1OCCN1/N=C/c1ccc([N+](=O)[O-])o1 [furazolidone],-0.866
4,CCCCOc1ccc(OCCCN2CCOCC2)cc1 [pramoxine hydrochloride],1.61
5,C[C@@H]1CC(=O)NN=C1c1ccc(NN=C(C#N)C#N)cc1 [levosimendan],-0.818
6,Cc1nnc(SCC2=C(C(=O)O)N3C(=O)[C@@H](NC(=O)Cn4cnnn4)[C@H]3SC2)s1 [cefazolin sodium],-0.533
7,Cc1ccc(C(=O)Nc2ccc(S(=O)(=O)O)c3cc(S(=O)(=O)O)cc(S(=O)(=O)O)c23)cc1NC(=O)c1cccc(NC(=O)Nc2cccc(C(=O)Nc3cc(C(=O)Nc4ccc(S(=O)(=O)O)c5cc(S(=O)(=O)O)cc(S(=O)(=O)O)c45)ccc3C)c2)c1 [Suramin hexasodium],-0.0546
8,CC(C)[C@H]1CC[C@H](C(=O)N[C@H](Cc2ccccc2)C(=O)O)CC1 [nateglinide],-0.0696
9,CC1OC1P(=O)(O)O (centres undefined) [fosphomycin],0.182
10,NC[C@H]1CC[C@H](C(=O)O)CC1 [tranexamic acid],0.533
11,CO[C@H]1C[C@H](O[C@H]2[C@H](C)[C@@H](OC3O[C@H](C)C[C@H](N(C)C)[C@H]3O)[C@@H](C)C[C@]3(CO3)C(=O)[C@H](C)[C@@H](O)[C@@H](C)[C@@H](C)OC(=O)[C@@H]2C)O[C@@H](C)[C@@H]1O (some centres undefined) [oleandomycin phosphate],0.797
12,CC1(C)S[C@@H]2[C@H](N3C(=O)[C@@H](c4ccccc4)NC3(C)C)C(=O)N2[C@H]1C(=O)O [hetacillin potassium],-1.02
13,CC(C)/N=c1\cc2n(-c3ccc(Cl)cc3)c3ccccc3nc-2cc1Nc1ccc(Cl)cc1 [clofazimine],0.215
14,Cc1nc(-c2ccc(OCC(C)C)c(C#N)c2)sc1C(=O)O [febuxostat],-0.0582
15,CC1(O)CCC(C(C)(C)O)CC1 (centres undefined) [terpene hydrate],0.00973
16,NC(=O)c1cccnc1 [niacinamide],-1.23
17,Nc1nccs1 [aminothiazole],1.06
18,C/N=C(/NC#N)NCCSCc1[nH]cnc1C [Cimetidine],-0.144
19,Cc1ccc(C(=O)c2ccc(CC(=O)O)n2C)cc1 [tolmetin sodium],-0.547
20,C[C@@H]1CC2C3C[C@H](F)C4=CC(=O)C=C[C@]4(C)[C@@]3(F)[C@@H](O)C[C@]2(C)[C@@]1(O)C(=O)COC(=O)C(C)(C)C (some centres undefined) [flumethazone pivalate],0.386
21,CCCCCCCCCCCCCCCC[N+](C)(C)C [cetrimonium bromide],-0.0801
22,N=C(N)NCCN1CCCCCCC1 [guanethidine sulfate],0.306
23,CN(C)c1ccc(O)c2c1C[C@H]1C[C@H]3[C@H](N(C)C)C(=O)C(C(N)=O)=C(O)[C@@]3(O)C(=O)C1=C2O [minocycline hydrochloride],-0.31
24,CC1=C(C(=O)O)N2C(=O)[C@@H](NC(=O)[C@H](N)c3ccc(O)cc3)[C@H]2SC1 [cefadroxil],1.64
25,COC(=O)C1=C(C)N=C(C)/C(=C(/O)OC)C1c1ccccc1[N+](=O)[O-] (centres undefined) [Nifedipine],-0.971
26,C=C[C@H]1CN2CC[C@H]1C[C@@H]2[C@@H](O)c1ccnc2ccc(OC)cc12 [quinidine gluconate],0.306
27,CC1=C(/C=C/C(C)=C/C=C/C(C)=C/CO)C(C)(C)CCC1 [retinol],1.43

row,Structure (SMILES),APOC3 transcript change (Z-score)
1,CCc1cc(C(N)=S)ccn1 [ethionamide],0.0359
2,CC(=O)CCCCn1c(=O)c2c(ncn2C)n(C)c1=O [Pentoxifylline],0.026
3,NS(=O)(=O)c1cc2c(cc1Cl)NC(C(Cl)Cl)NS2(=O)=O (centres undefined) [trichlormethiazide],-0.153
4,O=C(O)[C@H](O)[C@@H](O)[C@H](O)[C@H](O)CO [sodium gluconate],-1.13
5,CC[C@]12CCCN3CCc4c(n(c5ccccc45)[C@@](O)(C(=O)OC)C1)[C@@H]32 [vincamine],0.0854
6,CC(=O)OCC1=C(C(=O)O)N2C(=O)[C@@H](NC(=O)CSc3ccncc3)[C@H]2SC1 [cephapirin sodium],1.45
7,CCC(C)(C)c1ccc(CC(C)CN2C[C@@H](C)O[C@@H](C)C2)cc1 (some centres undefined) [amorolfine hydrochloride],0.193
8,O=C1Cc2cc(CCN3CCN(c4nsc5ccccc45)CC3)c(Cl)cc2N1 [ziprasidone mesylate],1.1
9,O=C(CCCN1CCC(O)(c2ccc(Br)cc2)CC1)c1ccc(F)cc1 [bromperidol],0.633
10,Cc1cn([C@H]2C=C[C@@H](CO)O2)c(=O)[nH]c1=O [stavudine],0.356
11,CCc1nn(CCCN2CCN(c3cccc(Cl)c3)CC2)c(=O)n1CCOc1ccccc1 [nefazodone hydrochloride],-0.326
12,Clc1ccccc1C(c1ccccc1)(c1ccccc1)n1ccnc1 [clotrimazole],0.448
13,CC(=O)Oc1cc(C(C)C)c(OCCN(C)C)cc1C [moxisylyte hydrochoride],-0.975
14,Nc1ccn(C2CSC(CO)O2)c(=O)n1 (centres undefined) [lamivudine],4.21
15,CCCCOc1ccc(CC(=O)NO)cc1 [bufexamac],1.16
16,COc1ccc2c(c1)c(CC(=O)O)c(C)n2C(=O)c1ccc(Cl)cc1 [Indomethacin],0.0726
17,COc1ccnc(CS(=O)c2nc3cc(OC(F)F)ccc3[nH]2)c1OC (centres undefined) [pantoprazole],1.1
18,COc1ccccc1OCC(O)COC(N)=O (centres undefined) [methocarbamol],-0.165
19,CC1(C)O[C@@H]2[C@@H](CO[C@@]3(COS(N)(=O)=O)OC(C)(C)O[C@@H]23)O1 [topiramate],-0.499
20,C[N+](C)(C)CCOP(=O)([O-])OP(=O)(O)OC[C@H]1O[C@@H](n2ccc(N)nc2=O)[C@H](O)[C@@H]1O [citicoline],0.201
21,CC(C)CCC[C@@H](C)[C@H]1CC[C@H]2[C@@H]3CC=C4C[C@@H](O)CC[C@]4(C)[C@H]3CC[C@]12C [cholesterol],0.225
22,O=C(O)CCc1nc2ccccc2[nH]1 [procodazole],-0.315
23,CC(=O)OCC(=O)[C@@]1(O)CCC2C3CCC4=CC(=O)CC[C@]4(C)C3[C@@H](O)C[C@@]21C (some centres undefined) [hydrocortisone acetate],-0.0625
24,CCN(CC)C(=O)N1CCN(C)CC1 [diethylcarbamazine citrate],-0.411
25,Nc1ccc(N=Nc2ccccc2)c(N)n1 [phenazopyridine hydrochloride],0.775
